This data set can be described thus: Hypochlorous acid (HOCl) sensor: fluorescence and absorbance response to added HOCl. It is filed as physicochemical. The conditions noted are these: 0.5 μM compound. The method, then: A solution of compound 3 from Table 2 herein was formed at a concentration of 0.5 μM and at a pH of 7.4. HOCl was added to the solution at concentrations ranging up to 2 μM and the fluorescence of the resulting solutions was measured after exposure to an excitatory light pulse of 655 nm.
A solution of compound 29 from Table 5 herein was formed at a concentration of 0.5 μM and at a pH of 7.4. HOCl was added to the solution at concentrations ranging up to 5 μM and the fluorescence of the resulting solutions was measured after exposure to an excitatory light pulse of 580 nm.

With `C[Si]1(C)c2cc(O)ccc2C2(c3ccccc3C(=O)N2CCN2CCNCCNCCNCC2)c2ccc(O)cc21` [Compound 29], for the setting “pH 7.4, HOCl up to 5 μM”, the “intensity of fluorescence at 605 nm and 570 nm as a function of HOCl concentration” value is “linear relationship”.

As to `CN(C)c1ccc2c(c1)[Si](C)(C)c1cc(N(C)C)ccc1C21SCc2ccccc21` [Compound 3], the “intensity of fluorescence at 663 nm as a function of HOCl concentration” value (pH 7.4, HOCl up to 2 μM, excitation 655 nm) is listed as “linear relationship”.

The record behind these values is patent US9429568B2, “Silaanthracene as a red and near infrared sensor and a method to manufacture such a sensor” (Board of Trustees of Southern Illinois University on Behalf …, priority 2010, dated 2016).
